# Results of single-concentration screens

Amino acid sequences for entries named in this document (tags omitted). Residues count along the entry.
UniProt I6X8D2, whole entry: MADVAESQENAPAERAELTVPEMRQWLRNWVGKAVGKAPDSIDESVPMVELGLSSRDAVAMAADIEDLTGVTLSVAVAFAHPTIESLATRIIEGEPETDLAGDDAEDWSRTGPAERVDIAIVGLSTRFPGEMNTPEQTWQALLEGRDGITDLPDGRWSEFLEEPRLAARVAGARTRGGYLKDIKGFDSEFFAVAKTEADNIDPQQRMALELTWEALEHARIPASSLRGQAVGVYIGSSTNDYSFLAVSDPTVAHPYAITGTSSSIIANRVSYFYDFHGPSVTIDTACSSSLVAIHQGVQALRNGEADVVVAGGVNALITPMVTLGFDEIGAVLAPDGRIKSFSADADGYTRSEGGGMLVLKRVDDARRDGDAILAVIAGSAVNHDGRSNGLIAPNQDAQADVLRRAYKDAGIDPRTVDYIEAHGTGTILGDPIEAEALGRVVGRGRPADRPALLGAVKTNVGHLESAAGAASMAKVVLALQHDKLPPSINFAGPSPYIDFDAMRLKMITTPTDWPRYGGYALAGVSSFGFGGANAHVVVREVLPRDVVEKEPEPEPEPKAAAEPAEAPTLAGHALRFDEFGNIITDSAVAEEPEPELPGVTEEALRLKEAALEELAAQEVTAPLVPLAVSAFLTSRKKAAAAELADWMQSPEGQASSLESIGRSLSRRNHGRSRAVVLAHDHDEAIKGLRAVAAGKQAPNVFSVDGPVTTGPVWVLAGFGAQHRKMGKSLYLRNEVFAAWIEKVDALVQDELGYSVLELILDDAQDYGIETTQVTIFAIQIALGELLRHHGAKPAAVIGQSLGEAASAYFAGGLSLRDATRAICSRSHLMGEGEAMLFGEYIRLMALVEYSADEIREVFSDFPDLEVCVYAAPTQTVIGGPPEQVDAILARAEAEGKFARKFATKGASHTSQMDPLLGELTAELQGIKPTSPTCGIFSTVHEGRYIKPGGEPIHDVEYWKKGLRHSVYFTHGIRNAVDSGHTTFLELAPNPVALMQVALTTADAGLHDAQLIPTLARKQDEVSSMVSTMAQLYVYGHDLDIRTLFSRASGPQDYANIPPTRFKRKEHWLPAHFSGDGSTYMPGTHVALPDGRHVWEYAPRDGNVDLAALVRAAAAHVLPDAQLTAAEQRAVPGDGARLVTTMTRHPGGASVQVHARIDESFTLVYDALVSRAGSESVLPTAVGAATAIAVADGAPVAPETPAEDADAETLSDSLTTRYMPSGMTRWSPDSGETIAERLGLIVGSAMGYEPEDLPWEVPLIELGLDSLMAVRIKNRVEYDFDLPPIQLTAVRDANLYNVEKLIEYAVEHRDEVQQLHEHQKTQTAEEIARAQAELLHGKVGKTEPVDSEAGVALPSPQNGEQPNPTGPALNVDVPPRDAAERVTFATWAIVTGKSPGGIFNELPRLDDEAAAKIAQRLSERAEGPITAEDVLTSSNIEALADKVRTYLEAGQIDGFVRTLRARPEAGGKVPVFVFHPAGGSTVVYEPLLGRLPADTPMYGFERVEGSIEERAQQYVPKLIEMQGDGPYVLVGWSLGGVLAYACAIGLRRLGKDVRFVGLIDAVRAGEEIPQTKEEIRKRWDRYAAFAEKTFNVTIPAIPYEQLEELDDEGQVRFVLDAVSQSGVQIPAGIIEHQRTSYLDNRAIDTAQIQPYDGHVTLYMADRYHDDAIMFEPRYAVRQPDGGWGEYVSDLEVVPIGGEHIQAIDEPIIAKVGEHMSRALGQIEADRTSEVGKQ
UniProt Q8IDJ8, 1-583: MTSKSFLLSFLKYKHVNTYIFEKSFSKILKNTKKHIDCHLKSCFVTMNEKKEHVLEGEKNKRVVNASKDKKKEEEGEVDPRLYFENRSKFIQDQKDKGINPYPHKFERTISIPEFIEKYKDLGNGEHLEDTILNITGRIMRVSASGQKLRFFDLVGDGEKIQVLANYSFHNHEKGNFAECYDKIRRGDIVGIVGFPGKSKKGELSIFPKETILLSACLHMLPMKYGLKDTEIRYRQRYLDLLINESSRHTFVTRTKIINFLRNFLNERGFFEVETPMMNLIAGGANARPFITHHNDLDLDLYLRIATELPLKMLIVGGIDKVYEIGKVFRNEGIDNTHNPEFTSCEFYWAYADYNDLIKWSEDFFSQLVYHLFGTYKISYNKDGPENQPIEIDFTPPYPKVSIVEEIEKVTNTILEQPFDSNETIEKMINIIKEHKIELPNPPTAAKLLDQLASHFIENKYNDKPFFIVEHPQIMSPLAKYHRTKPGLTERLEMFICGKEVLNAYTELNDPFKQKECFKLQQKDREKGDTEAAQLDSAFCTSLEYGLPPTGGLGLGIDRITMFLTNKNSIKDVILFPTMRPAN
UniProt P9WNZ1, whole entry: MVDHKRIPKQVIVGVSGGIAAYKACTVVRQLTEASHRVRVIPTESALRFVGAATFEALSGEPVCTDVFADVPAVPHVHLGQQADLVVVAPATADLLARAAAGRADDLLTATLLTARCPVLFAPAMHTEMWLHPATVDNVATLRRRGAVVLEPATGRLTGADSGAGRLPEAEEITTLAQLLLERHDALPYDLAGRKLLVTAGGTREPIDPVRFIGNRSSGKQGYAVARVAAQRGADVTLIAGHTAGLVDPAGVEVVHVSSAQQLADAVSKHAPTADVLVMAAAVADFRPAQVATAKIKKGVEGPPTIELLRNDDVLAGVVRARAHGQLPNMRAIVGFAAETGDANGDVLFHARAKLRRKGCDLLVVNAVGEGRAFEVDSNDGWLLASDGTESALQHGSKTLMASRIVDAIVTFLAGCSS

The values are deposited in ChEMBL (CHEMBL3988442, “University of Dundee, Small-Polar-MMV Screening Library” (2021)).

A: 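Enzyme assay of the thioesterase domain of polyketide synthase 13; the read-out is not stated. Target: Polyketide synthase Pks13, Mycobacterium tuberculosis (UniProt I6X8D2). Concentration: 30 µM. The record gives no direction; the compounds picked for IC50 retests had high values, so higher reads as stronger inhibition. Of about 67,000 compounds tested this way, about 300 (0.46%) reached 50% or more in at least one test.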
B: 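Enzyme assay of the cytosolic lysyl-tRNA synthetase in 384-well plates, read by luminescence. Target: Lysine-tRNA ligase, Plasmodium falciparum 3D7 (UniProt Q8IDJ8). Compounds at 30 µM. Direction is inferred from only a few compounds that gave an IC50; most scored high, so higher reads as stronger inhibition. Size under these conditions: about 69,000 compounds, about 49 of them at 50% or above in at least one test.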
C: 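Coenzyme A biosynthesis protein CoaBC, Mycobacterium tuberculosis (UniProt P9WNZ1). Enzyme assay of CoaBC with a phosphate dye (Biomol Green) read at 650 nm. Concentration: 30 µM. Higher reads as stronger inhibition, judged from the few compounds that gave an IC50. Most strong results did not repeat in a second test. About 67,000 compounds were tested under these conditions; 0.06% (about 40) showed 50% or more at least once.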

The filed quantity is “Percent Effect” (%). The record does not define 0% and 100%; most values in the screen are far below 50% and negative numbers occur (in some assays of this library far below -100). The compounds are a random part of those screened.

{"compound": "CCC(NC(=O)C1CCN(S(C)(=O)=O)CC1)c1ccc(C)cc1", "stereo": "centres undefined", "A": -19.47, "B": 0.02393, "C": 1.777}
{"compound": "CC(=O)N1CCC(c2cc(C(F)(F)F)n3ccnc3n2)CC1", "A": 41.78, "B": 1.364, "C": 1.178}
{"compound": "Cc1ccc(CN2CCC3(C2)C(=O)N(CC(C)C)c2ccccc23)s1", "stereo": "centres undefined", "A": -7.776, "B": 7.262, "C": 5.176}
{"compound": "CS(=O)(=O)NC1CCCN(C(=O)c2cccnc2)C1", "stereo": "centres undefined", "A": -10.72, "B": 0.4064, "C": 2.872}
{"compound": "CSCc1nc(CCNC(=O)C2CCCN(C(C)=O)C2)cs1", "stereo": "centres undefined", "A": -26.72, "B": 3.285, "C": 5.455}
{"compound": "COc1ccc(C)cc1CCNS(=O)(=O)c1ccc2c(c1)CCC(=O)N2", "B": 4.67, "C": 1.585}
{"compound": "COCCNC(=O)c1ccc(C)c(-n2cccc2)c1", "A": -19.06, "B": 2.565, "C": 8.772}
{"compound": "COc1cccc(S(=O)(=O)Cc2noc(CC(C)C)n2)c1", "A": -6.932, "B": 0.1491, "C": 0.6198}
{"compound": "CN(Cc1ccccc1)CC1(O)CCCN(Cc2ccc(F)cc2)C1=O", "stereo": "centres undefined", "A": 1.386, "B": 0.09939, "C": -0.5102}
{"compound": "CCOc1cc(=O)n2c(c1C(=O)OCc1ccc(OC)cc1)CCCC2", "A": -12.99, "B": 2.242, "C": -0.8505}
{"compound": "Cc1noc(C)c1CN1CCC2(CC1)NC(=O)CC2c1cnn(C)c1", "stereo": "centres undefined", "A": -16.6, "B": 1.132, "C": 5.549}
{"compound": "CC(C)(C)C(=O)Nc1ccc(Oc2ccsc2C(=O)O)cc1", "A": -15.6, "B": 4.452, "C": 0.4603}
{"compound": "COc1nccc(N2CC[C@@H](N3CCC(O)CC3)[C@H](O)C2)c1C#N", "A": -6.161, "B": -1.469, "C": -3.777}
{"compound": "COCc1ccc(C(=O)N2CCN(CCS(C)(=O)=O)CC2)cc1", "A": -11.38, "B": 3.886, "C": -0.6242}
{"compound": "CC(c1ccccc1)N(C)C(=O)CN1CCCc2cc(F)cc(F)c21", "stereo": "centres undefined", "A": -28.59, "B": 1.883, "C": -3.64}
{"compound": "CCOCc1nc2c(c(N3CC=CC3)n1)CCN(Cc1ccco1)CC2", "B": 6.615, "C": 0.1631}
{"compound": "COc1ccc(C[C@H]2CN(C(=O)c3cscn3)CC[C@@H]2OC)cc1", "A": -39.05, "B": 0.4139, "C": 2.703}
{"compound": "O=C(c1cnco1)N1CCCC(Cc2cccc3ncccc23)C1", "stereo": "centres undefined", "A": -38.59, "B": 0.8038, "C": 7.778}
{"compound": "Cn1nccc1C(=O)N1CCOC(Cc2cccc(C(F)(F)F)c2)C1", "stereo": "centres undefined", "A": -11.02, "B": -2.714, "C": 0.8929}
{"compound": "CC(=O)N(Cc1ncc(C)o1)C1CCN(CCc2cccs2)C1", "stereo": "centres undefined", "A": -18.21, "B": -0.7631, "C": 3.704}
{"compound": "Cn1ncnc1-c1ccnc(N2CCC(C(O)c3cccs3)CC2)n1", "stereo": "centres undefined", "A": 6.054, "B": -0.3485, "C": 0.6098}
{"compound": "CCc1noc(C(C)N2CCN(C(=O)CN3CCOCC3)CC2)n1", "stereo": "centres undefined", "A": -6.168, "B": -0.1006, "C": 1.305}
{"compound": "Cc1ccc(Oc2ncccc2CNS(=O)(=O)N2CCOCC2)cn1", "A": -17.15, "B": 3.876, "C": 2.451}
{"compound": "COc1ncc(C2(O)CCN(Cc3cccs3)CC2)c(OC)n1", "A": -9.025, "B": 3.932, "C": 6.152}
{"compound": "CCC(NCc1ccccn1)c1ccccc1OCC(=O)NC", "stereo": "centres undefined", "A": -11.05, "B": 6.987, "C": 0.7968}
{"compound": "Cc1noc(C)c1CCC(=O)N1CCN(CCn2cccn2)CC1", "A": -18.67, "B": -3.744, "C": 8.316}
{"compound": "O=C1CCN(C(=O)CCc2cc(Br)cs2)CCN1", "A": -29.9, "B": 4.354, "C": 7.438}
{"compound": "COCC(=O)N1CCC(O)(CN2CCN(c3ccccc3)CC2)C1", "stereo": "centres undefined", "A": -4.156, "B": 1.249, "C": -6.413}